Measurements reported in paper PMC11806767.
These are yes or no findings as the source states them, for the method shown. Binding seen in cells or lysates may run through a third protein. Some binding calls cover weakened binding; strength is not graded here. Tags and fused reporters may be left off the sequences shown.

Legend:
[1] = target: T1, mycobacterial lipoamide dehydrogenase C (LpdC), BiFC fusion (Mycobacterium tuberculosis) (UniProt P9WHH9); test: split reporter
T1 sequence: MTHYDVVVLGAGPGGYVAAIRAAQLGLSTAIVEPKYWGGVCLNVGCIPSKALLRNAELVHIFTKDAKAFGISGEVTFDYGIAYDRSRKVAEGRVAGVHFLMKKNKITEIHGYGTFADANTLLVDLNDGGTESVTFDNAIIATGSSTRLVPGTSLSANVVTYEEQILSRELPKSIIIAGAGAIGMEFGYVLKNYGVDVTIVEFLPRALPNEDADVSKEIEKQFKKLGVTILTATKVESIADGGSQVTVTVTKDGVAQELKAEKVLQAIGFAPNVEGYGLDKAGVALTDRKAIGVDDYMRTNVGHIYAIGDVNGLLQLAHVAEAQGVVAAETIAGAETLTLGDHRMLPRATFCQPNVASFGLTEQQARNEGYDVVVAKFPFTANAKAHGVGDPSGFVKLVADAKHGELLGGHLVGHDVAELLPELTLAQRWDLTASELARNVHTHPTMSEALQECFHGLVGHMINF

[2] = target: T2, mycobacterial lipoamide dehydrogenase C (LpdC), construct of the co-IP (Mycobacterium tuberculosis) (UniProt P9WHH9); test: co-IP
T2 sequence: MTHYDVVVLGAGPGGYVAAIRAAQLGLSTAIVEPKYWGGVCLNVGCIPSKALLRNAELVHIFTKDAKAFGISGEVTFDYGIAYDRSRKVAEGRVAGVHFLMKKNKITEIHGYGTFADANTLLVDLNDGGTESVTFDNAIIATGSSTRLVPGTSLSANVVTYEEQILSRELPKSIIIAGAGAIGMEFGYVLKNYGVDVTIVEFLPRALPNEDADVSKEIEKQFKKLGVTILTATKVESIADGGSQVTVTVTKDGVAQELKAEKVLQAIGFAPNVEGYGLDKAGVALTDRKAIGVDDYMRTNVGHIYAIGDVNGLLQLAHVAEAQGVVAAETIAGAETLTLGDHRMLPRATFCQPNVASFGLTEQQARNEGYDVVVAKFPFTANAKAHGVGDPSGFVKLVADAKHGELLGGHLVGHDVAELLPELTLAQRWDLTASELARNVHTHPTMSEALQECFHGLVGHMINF

Binder | binding [1] | binding [2]
bCoronin-2A, BiFC fusion (protein, UniProt Q32LP9 1-525) MSWHPQYRSSKFRHVFGKPASKENCYDSVPITHSVQDNHFCAVNPHFIAVVTECTGGGAFLVIPLHQTGKLDPHYPKVCGHRGNVLDVKWNPFNDFEIASCSEDATIKIWDIPKQLLTKNLTAFRKELVGHARKVGLVEWHPTAANILFSSGYDYKVMVWNLDSKESVIMSPVKTINCHQDVILSMSFNTNGSLLATACKDRKIRVLDPRAGTVLQEANYKGHRANKVLFLGNLKKLLSTGTSRWNNRQMALWDQDDLSVPVTEVDLDGSSGVLFPFYDADTNMLYVVGKGDRNIHYYEISANKPHLNYLMEYHSYNPQKGIGVMPKRGLDVSSCEIFRFYKLITTKSLIEPVSMIVPRRSESYQEDIYPPTASAQPSLTAQEWLSGMNKEPVLMSLRPGAEPLSPQPLPSERTLSMPTAPTSPHLFNQTESLVAEDGRRPFSLLEEKAPRWAAEHRQEEKKTWLSDGFDIFECPPPKTENELLQMFYRQQDEIRRLRELVTQREVQAKQLELEIRNLRMNSPRL | binds | 
bCoronin-2A (co-IP construct) (protein, UniProt Q32LP9 1-525) MSWHPQYRSSKFRHVFGKPASKENCYDSVPITHSVQDNHFCAVNPHFIAVVTECTGGGAFLVIPLHQTGKLDPHYPKVCGHRGNVLDVKWNPFNDFEIASCSEDATIKIWDIPKQLLTKNLTAFRKELVGHARKVGLVEWHPTAANILFSSGYDYKVMVWNLDSKESVIMSPVKTINCHQDVILSMSFNTNGSLLATACKDRKIRVLDPRAGTVLQEANYKGHRANKVLFLGNLKKLLSTGTSRWNNRQMALWDQDDLSVPVTEVDLDGSSGVLFPFYDADTNMLYVVGKGDRNIHYYEISANKPHLNYLMEYHSYNPQKGIGVMPKRGLDVSSCEIFRFYKLITTKSLIEPVSMIVPRRSESYQEDIYPPTASAQPSLTAQEWLSGMNKEPVLMSLRPGAEPLSPQPLPSERTLSMPTAPTSPHLFNQTESLVAEDGRRPFSLLEEKAPRWAAEHRQEEKKTWLSDGFDIFECPPPKTENELLQMFYRQQDEIRRLRELVTQREVQAKQLELEIRNLRMNSPRL |  | binds
